{"source": "patent US20140038203A1", "about": "“METHODS FOR DETECTING OR PREDICTING KIDNEY DISEASE” (MUSC FOUNDATION FOR RESEARCH DEVELOPMENT, priority 2012, published 2014)", "molecules": {"B1": {"name": "Arylsulfatase A (protein, UniProt P15289 19-507, looked up)", "Arylsulfatase A": "RPPNIVLIFADDLGYGDLGCYGHPSSTTPNLDQLAAGGLRFTDFYVPVSLCTPSRAALLTGRLPVRMGMYPGVLVPSSRGGLPLEEVTVAEVLAARGYLTGMAGKWHLGVGPEGAFLPPHQGFHRFLGIPYSHDQGPCQNLTCFPPATPCDGGCDQGLVPIPLLANLSVEAQPPWLPGLEARYMAFAHDLMADAQRQDRPFFLYYASHHTHYPQFSGQSFAERSGRGPFGDSLMELDAAVGTLMTAIGDLGLLEETLVIFTADNGPETMRMSRGGCSGLLRCGKGTTYEGGVREPALAFWPGHIAPGVTHELASSLDLLPTLAALAGAPLPNVTLDGFDLSPLLLGTGKSPRQSLFFYPSYPDEVRGVFAVRTGKYKAHFFTQGSAHSDTTADPACHASSSLTAHEPPLLYDLSKDPGENYNLLGGVAGATPEVLQALKQLQLLKAQLDAAVTFGPSQVARGEDPALQICCHPGCTPRPACCHCPDPHA"}, "B2": {"name": "Myoglobin (protein, UniProt P02144 2-154, looked up)", "Myoglobin": "GLSDGEWQLVLNVWGKVEADIPGHGQEVLIRLFKGHPETLEKFDKFKHLKSEDEMKASEDLKKHGATVLTALGGILKKKGHHEAEIKPLAQSHATKHKIPVKYLEFISECIIQVLQSKHPGDFGADAQGAMNKALELFRKDMASNYKELGFQG"}, "B3": {"name": "Syntenin-1 (protein, UniProt O00560 2-298, looked up)", "Syntenin-1": "SLYPSLEDLKVDKVIQAQTAFSANPANPAILSEASAPIPHDGNLYPRLYPELSQYMGLSLNEEEIRANVAVVSGAPLQGQLVARPSSINYMVAPVTGNDVGIRRAEIKQGIREVILCKDQDGKIGLRLKSIDNGIFVQLVQANSPASLVGLRFGDQVLQINGENCAGWSSDKAHKVLKQAFGEKITMTIRDRPFERTITMHKDSTGHVGFIFKNGKITSIVKDSSAARNGLLTEHNICEINGQNVIGLKDSQIADILSTSGTVVTITIMPAFIFEHIIKRMAPSIMKSLMDHTIPEV"}, "B4": {"name": "Ribosome-binding protein 1 (protein, UniProt Q9P2E9 1-1410, looked up)", "Ribosome-binding protein 1": "MDIYDTQTLGVVVFGGFMVVSAIGIFLVSTFSMKETSYEEALANQRKEMAKTHHQKVEKKKKEKTVEKKGKTKKKEEKPNGKIPDHDPAPNVTVLLREPVRAPAVAVAPTPVQPPIIVAPVATVPAMPQEKLASSPKDKKKKEKKVAKVEPAVSSVVNSIQVLTSKAAILETAPKEVPMVVVPPVGAKGNTPATGTTQGKKAEGTQNQSKKAEGAPNQGRKAEGTPNQGKKTEGTPNQGKKAEGTPNQGKKAEGTPNQGKKAEGAQNQGKKVDTTPNQGKKVEGAPTQGRKAEGAQNQAKKVEGAQNQGKKAEGAQNQGKKGEGAQNQGKKAEGAQNQGKKAEGAQNQGKKAEGAQNQGKKAEGAQNQGKKAEGAQNQGKKAEGAQNQGKKVEGAQNQGKKAEGAQNQGKKAEGAQNQGKKAEGAQNQGKKAEGAQNQGKKAEGAQNQGKKAEGAQNQGKKAEGAQNQGKKVEGAQNQGKKAEGAQNQGKKAEGAQNQGKKAEGAQNQGQKGEGAQNQGKKTEGAQGKKAERSPNQGKKGEGAPIQGKKADSVANQGTKVEGITNQGKKAEGSPSEGKKAEGSPNQGKKADAAANQGKKTESASVQGRNTDVAQSPEAPKQEAPAKKKSGSKKKGEPGPPDADGPLYLPYKTLVSTVGSMVFNEGEAQRLIEILSEKAGIIQDTWHKATQKGDPVAILKRQLEEKEKLLATEQEDAAVAKSKLRELNKEMAAEKAKAAAGEAKVKKQLVAREQEITAVQARMQASYREHVKEVQQLQGKIRTLQEQLENGPNTQLARLQQENSILRDALNQATSQVESKQNAELAKLRQELSKVSKELVEKSEAVRQDEQQRKALEAKAAAFEKQVLQLQASHRESEEALQKRLDEVSRELCHTQSSHASLRADAEKAQEQQQQMAELHSKLQSSEAEVRSKCEELSGLHGQLQEARAENSQLTERIRSIEALLEAGQARDAQDVQASQAEADQQQTRLKELESQVSGLEKEAIELREAVEQQKVKNNDLREKNWKAMEALATAEQACKEKLLSLTQAKEESEKQLCLIEAQTMEALLALLPELSVLAQQNYTEWLQDLKEKGPTLLKHPPAPAEPSSDLASKLREAEETQSTLQAECDQYRSILAETEGMLRDLQKSVEEEEQVWRAKVGAAEEELQKSRVTVKHLEEIVEKLKGELESSDQVREHTSHLEAELEKHMAAASAECQNYAKEVAGLRQLLLESQSQLDAAKSEAQKQSDELALVRQQLSEMKSHVEDGDIAGAPASSPEAPPAEQDPVQLKTQLEWTEAILEDEQTQRQKLTAEFEEAQTSACRLQEELEKLRTAGPLESSETEEASQLKERLEKEKKLTSDLGRAATRLQELLKTTQEQLAREKDTVKKLQEQLEKAEDGSSSKEGTSV"}, "B5": {"name": "Folate receptor alpha (protein, UniProt P15328 25-234, looked up)", "Folate receptor alpha": "RIAWARTELLNVCMNAKHHKEKPGPEDKLHEQCRPWRKNACCSTNTSQEAHKDVSYLYRFNWNHCGEMAPACKRHFIQDTCLYECSPNLGPWIQQVDQSWRKERVLNVPLCKEDCEQWWEDCRTSYTCKSNWHKGWNWTSGFNKCAVGAACQPFHFYFPTPTVLCNEIWTHSYKVSNYSRGSGRCIQMWFDPAQGNPNEEVARFYAAAMS"}, "B6": {"name": "Ganglioside GM2 activator (protein, UniProt P17900 32-193, looked up)", "Ganglioside GM2 activator": "SSFSWDNCDEGKDPAVIRSLTLEPDPIIVPGNVTLSVMGSTSVPLSSPLKVDLVLEKEVAGLWIKIPCTDYIGSCTFEHFCDVLDMLIPTGEPCPEPLRTYGLPCHCPFKEGTYSLPKSEFVVPDLELPSWLTTGNYRIESVLSSSGKRLGCIKIAASLKGI"}, "B7": {"name": "Bone marrow proteoglycan (protein, UniProt P13727 17-222, looked up)", "Bone marrow proteoglycan": "LHLRSETSTFETPLGAKTLPEDEETPEQEMEETPCRELEEEEEWGSGSEDASKKDGAVESISVPDMVDKNLTCPEEEDTVKVVGIPGCQTCRYLLVRSLQTFSQAWFTCRRCYRGNLVSIHNFNINYRIQCSVSALNQGQVWIGGRITGSGRCRRFQWVDGSRWNFAYWAAHQPWSRGGHCVALCTRGGHWRRAHCLRRLPFICSY"}, "B8": {"name": "Ceruloplasmin (protein, UniProt P00450 20-1065, looked up)", "Ceruloplasmin": "KEKHYYIGIIETTWDYASDHGEKKLISVDTEHSNIYLQNGPDRIGRLYKKALYLQYTDETFRTTIEKPVWLGFLGPIIKAETGDKVYVHLKNLASRPYTFHSHGITYYKEHEGAIYPDNTTDFQRADDKVYPGEQYTYMLLATEEQSPGEGDGNCVTRIYHSHIDAPKDIASGLIGPLIICKKDSLDKEKEKHIDREFVVMFSVVDENFSWYLEDNIKTYCSEPEKVDKDNEDFQESNRMYSVNGYTFGSLPGLSMCAEDRVKWYLFGMGNEVDVHAAFFHGQALTNKNYRIDTINLFPATLFDAYMVAQNPGEWMLSCQNLNHLKAGLQAFFQVQECNKSSSKDNIRGKHVRHYYIAAEEIIWNYAPSGIDIFTKENLTAPGSDSAVFFEQGTTRIGGSYKKLVYREYTDASFTNRKERGPEEEHLGILGPVIWAEVGDTIRVTFHNKGAYPLSIEPIGVRFNKNNEGTYYSPNYNPQSRSVPPSASHVAPTETFTYEWTVPKEVGPTNADPVCLAKMYYSAVEPTKDIFTGLIGPMKICKKGSLHANGRQKDVDKEFYLFPTVFDENESLLLEDNIRMFTTAPDQVDKEDEDFQESNKMHSMNGFMYGNQPGLTMCKGDSVVWYLFSAGNEADVHGIYFSGNTYLWRGERRDTANLFPQTSLTLHMWPDTEGTFNVECLTTDHYTGGMKQKYTVNQCRRQSEDSTFYLGERTYYIAAVEVEWDYSPQREWEKELHHLQEQNVSNAFLDKGEFYIGSKYKKVVYRQYTDSTFRVPVERKAEEEHLGILGPQLHADVGDKVKIIFKNMATRPYSIHAHGVQTESSTVTPTLPGETLTYVWKIPERSGAGTEDSACIPWAYYSTVDQVKDLYSGLIGPLIVCRRPYLKVFNPRRKLEFALLFLVFDENESWYLDDNIKTYSDHPEKVNKDDEEFIESNKMHAINGRMFGNLQGLTMHVGDEVNWYLMGMGNEIDLHTVHFHGHSFQYKHRGVYSSDVFDIFPGTYQTLEMFPRTPGIWLLHCHVTDHIHAGMETTYTVLQNEDTKSG"}, "B9": {"name": "Ig mu chain C region (protein, UniProt P01871 1-474, looked up)", "Immunoglobulin heavy constant …": "GSASAPTLFPLVSCENSPSDTSSVAVGCLAQDFLPDSITFSWKYKNNSDISSTRGFPSVLRGGKYAATSQVLLPSKDVMQGTDEHVVCKVQHPNGNKEKNVPLPVIAELPPKVSVFVPPRDGFFGNPRKSKLICQATGFSPRQIQVSWLREGKQVGSGVTTDQVQAEAKESGPTTYKVTSTLTIKESDWLGQSMFTCRVDHRGLTFQQNASSMCVPDQDTAIRVFAIPPSFASIFLTKSTKLTCLVTDLTTYDSVTISWTRQNGEAVKTHTNISESHPNATFSAVGEASICEDDWNSGERFTCTVTHTDLPSPLKQTISRPKGVALHRPDVYLLPPAREQLNLRESATITCLVTGFSPADVFVQWMQRGQPLSPEKYVTSAPMPEPQAPGRYFAHSILTVSEEEWNTGETYTCVVAHEALPNRVTERTVDKSTEGEVSADEEGFENLWATASTFIVLFLLSLFYSTTVTLFKVK"}, "B10": {"name": "Heme-binding protein 2 (protein, UniProt Q9Y5Z4 2-205, looked up)", "Heme-binding protein 2": "AEPLQPDPGAAEDAAAQAVETPGWKAPEDAGPQPGSYEIRHYGPAKWVSTSVESMDWDSAIQTGFTKLNSYIQGKNEKEMKIKMTAPVTSYVEPGSGPFSESTITISLYIPSEQQFDPPRPLESDVFIEDRAEMTVFVRSFDGFSSAQKNQEQLLTLASILREDGKVFDEKVYYTAGYNSPVKLLNRNNEVWLIQKNEPTKENE"}, "B11": {"name": "Ig lambda chain V-III region SH (protein, UniProt P01714 21-112, looked up)", "Immunoglobulin lambda …": "SELTQDPAVSVALGQTVRITCQGDSLRSYYASWYQQKPGQAPVLVIYGKNNRPSGIPDRFSGSSSGNTASLTITGAQAEDEADYYCNSRDSS"}, "B12": {"name": "Beta-2-glycoprotein 1 (protein, UniProt P02749 20-345, looked up)", "Beta-2-glycoprotein 1": "GRTCPKPDDLPFSTVVPLKTFYEPGEEITYSCKPGYVSRGGMRKFICPLTGLWPINTLKCTPRVCPFAGILENGAVRYTTFEYPNTISFSCNTGFYLNGADSAKCTEEGKWSPELPVCAPIICPPPSIPTFATLRVYKPSAGNNSLYRDTAVFECLPQHAMFGNDTITCTTHGNWTKLPECREVKCPFPSRPDNGFVNYPAKPTLYYKDKATFGCHDGYSLDGPEEIECTKLGNWSAMPSCKASCKVPVKKATVVYQGERVKIQEKFKNGMLHGDKVSFFCKNKEKKCSYTEDAQCIDGTIEVPKCFKEHSSLAFWKTDASDVKPC"}}, "experiment": "RRT study: LC-MS/MS urinary proteomics, AKI after cardiac surgery, RRT vs No RRT", "parameters": "species or system human", "conditions": "patients who did vs did not require RRT/dialysis", "key": {"[1]": {"conditions": "direction of differential abundance"}, "[2]": {"conditions": "read with the Up or Down column"}}}
{"molecule": "B1", "values": [{"measurement": "Up or Down", "setting": "[1]", "value": "Down"}, {"measurement": "Mean Fold Change", "value": 1.44}]}
{"molecule": "B2", "values": [{"measurement": "Up or Down", "setting": "direction of urinary abundance", "value": "Up"}, {"measurement": "Mean Fold Change", "setting": "[2]", "value": 114.3198}]}
{"molecule": "B3", "values": [{"measurement": "Up or Down", "setting": "[1]", "value": "Down"}, {"measurement": "Mean Fold Change", "value": 1.059}]}
{"molecule": "B4", "values": [{"measurement": "Up or Down", "setting": "direction of urinary abundance", "value": "Up"}, {"measurement": "Mean Fold Change", "setting": "[2]", "value": 37.19}]}
{"molecule": "B5", "values": [{"measurement": "Up or Down", "setting": "[1]", "value": "Down"}, {"measurement": "Mean Fold Change", "value": 2.118}]}
{"molecule": "B6", "values": [{"measurement": "Up or Down", "setting": "direction of urinary abundance", "value": "Up"}, {"measurement": "Mean Fold Change", "setting": "[2]", "value": 2.512}]}
{"molecule": "B7", "values": [{"measurement": "Up or Down", "setting": "[1]", "value": "Down"}, {"measurement": "Mean Fold Change", "value": 1.414}]}
{"molecule": "B8", "values": [{"measurement": "Up or Down", "setting": "direction of urinary abundance", "value": "Up"}, {"measurement": "Mean Fold Change", "setting": "[2]", "value": 15.25}]}
{"molecule": "B9", "values": [{"measurement": "Up or Down", "setting": "direction of urinary abundance", "value": "Up"}, {"measurement": "Mean Fold Change", "setting": "[2]", "value": 2.516}]}
{"molecule": "B10", "values": [{"measurement": "Up or Down", "setting": "direction of urinary abundance", "value": "Up"}]}
{"molecule": "B11", "values": [{"measurement": "Up or Down", "setting": "direction of urinary abundance", "value": "Up"}, {"measurement": "Mean Fold Change", "setting": "[2]", "value": 25.04}]}
{"molecule": "B12", "values": [{"measurement": "Up or Down", "setting": "direction of urinary abundance", "value": "Up"}, {"measurement": "Mean Fold Change", "setting": "[2]", "value": 2.05}]}
